{
  "source": "patent US10040836B2",
  "about": "“Peptides for the treatment of neurodegenerative diseases” (Ramot at Tel-Aviv University Ltd., priority 2012, dated 2018)",
  "target": "T1, caspase-6 (Homo sapiens, UniProt P55212)",
  "T1 sequence (P55212 24-293)": "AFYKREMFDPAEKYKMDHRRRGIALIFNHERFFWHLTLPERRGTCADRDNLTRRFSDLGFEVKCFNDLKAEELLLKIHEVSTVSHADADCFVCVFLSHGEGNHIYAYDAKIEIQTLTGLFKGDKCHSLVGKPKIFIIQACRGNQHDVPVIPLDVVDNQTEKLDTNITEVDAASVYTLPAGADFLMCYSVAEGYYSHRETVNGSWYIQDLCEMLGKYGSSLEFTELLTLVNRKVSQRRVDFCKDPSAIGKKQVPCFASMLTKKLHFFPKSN",
  "experiment": "Purified caspase-6 activity assay (Caspase-Glo 6, Z-VEID-aminoluciferin)",
  "format": "biochemical",
  "parameters": "purchased Enzo life-science",
  "description": "For determining ED11 caspase-6 inhibition ability, the Caspase-Glo® 6 assay (Promega) was carried out according to the manufacturer's instructions. Briefly, 0.1 U/ml Purified caspase-6 (Enzo life-science) was incubated with 0-12 μM Z-VEID-aminoluciferin in the presence of 10 μM ED11 or DMSO as vehicle control, and luminescent signal of released aminoluciferin (as RLU) was detected using Synergy HT multi-mode micro-plate reader (Bio-Tek). For Michaelis-Menten curve plotting, initial velocity was calculated using linear regression of the progress curve linear segment, adjusted to RLU/min. For caspase-3 inhibition capability, caspase-3 inhibitor drug detection kit (Abcam) was performed according to the manufacturer's instructions.\nEDII inhibits caspase-6 activity in a purified caspase-6 activity assay: To test the peptide ability to compete on caspase-6 activity, purified caspase-6 and Z-VEID-Aminoluciferin (Caspase-6 Glo™, Promega) were incubated with ED11, and bioluminescence signal was detected using SynergyHT microplate reader (FIGS. 1A-1D).",
  "key": {"[1]": {"conditions": "0-12 μM Z-VEID-aminoluciferin, 10 μM ED11 vs DMSO vehicle"}},
  "note": "“Also recorded” adds a separate entry of the source. Not every detail of the peptide structures is certain; ends, links or a residue may be inferred. Where no end group is shown, it is not given here.",
  "data": [
    {"sequence": "GRKKRRQRRRPPQSSEIVLDGTDN [ED11]", "values": [
      {"measurement": "Km increase (Michaelis-Menten curve)", "setting": "[1]", "value": 3.3, "unit": "fold"},
      {"measurement": "Vmax (Michaelis-Menten curve)", "setting": "[1]", "value": "stays approximately the same"},
      {"measurement": "type of inhibition", "setting": "Michaelis-Menten curve", "value": "classic competitive inhibition"},
      {"measurement": "caspase-6 activity, specificity experiment", "setting": "purified caspase-3/caspase-6 assay, FIGS. 1E-1F", "value": "inhibits activity of caspase-6"},
      {"measurement": "caspase-6 activity", "setting": "purified caspase-6, Z-VEID-aminoluciferin, 10 μM ED11", "value": "significantly reduced caspase-6 activity; also recorded: dose-dependent"}
    ]}
  ]
}
